# From PMC3206494, “Discovery of potent, novel, non-toxic anti-malarial compounds via quantum modelling, virtual screening and in vitro experimental validation” (Malaria Journal, 2011)
# System: mammalian cytotoxicity
# Experiment: Toxicity assay, colorimetric MTT assay (mammalian cytotoxicity)
# Format: cell-based
# Conditions: ratio of mammalian cytotoxicity and anti-malarial activity
# Description: Toxicity was determined by using the colorimetric 3-(4,5-dimethylthiazol-2-yl)-2,5-diphenyltetrazoliumbromide (MTT) assay. The toxicity assays were performed at the Swiss Tropical Institute, Basel, Switzerland.
row,SMILES,Therapeutic Index
1,Cc1cccc[n+]1CCCCCCCCCC[n+]1ccccc1C [GR-M009],> 6923
2,Cc1ccc(Cn2cc(CCC(=O)NCCCN3CC(C)CC(C)C3)c3ccccc32)cc1 (centres unmarked) [GR-M007],23
3,CC(C)(C)CC(C)(C)Cc1ccc(OCCOCC[N+](C)(C)Cc2ccccc2)cc1 [GR-M011],38
4,"CCN(CC)CCCC(C)Nc1ccnc2cc(Cl)ccc12 (centres unmarked) [chloroquine, reference compound]",~2
5,CC1=C(CCC(C)N(C)Cc2ccc(OCCCN3CCCC3)cc2)C(C)(C)CCC1 (centres unmarked) [GR-M010],28
